# Test results as given in PMC4661566.
# Sequences of proteins named here, by UniProt entry; tags and fusion partners are left off. Residues count along the entry.
# UniProt O15379: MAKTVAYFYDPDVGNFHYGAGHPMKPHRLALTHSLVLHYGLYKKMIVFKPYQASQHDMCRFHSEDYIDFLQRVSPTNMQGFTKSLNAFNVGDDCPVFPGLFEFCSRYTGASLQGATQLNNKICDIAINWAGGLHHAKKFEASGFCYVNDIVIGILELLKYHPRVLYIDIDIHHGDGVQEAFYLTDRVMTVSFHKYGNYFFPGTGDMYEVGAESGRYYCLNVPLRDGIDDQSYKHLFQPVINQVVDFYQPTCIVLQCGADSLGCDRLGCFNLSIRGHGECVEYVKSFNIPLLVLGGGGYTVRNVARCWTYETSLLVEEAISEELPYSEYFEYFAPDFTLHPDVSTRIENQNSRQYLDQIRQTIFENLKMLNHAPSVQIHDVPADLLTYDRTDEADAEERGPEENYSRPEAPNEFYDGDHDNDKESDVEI
# UniProt Q9Y618, residues 350-480: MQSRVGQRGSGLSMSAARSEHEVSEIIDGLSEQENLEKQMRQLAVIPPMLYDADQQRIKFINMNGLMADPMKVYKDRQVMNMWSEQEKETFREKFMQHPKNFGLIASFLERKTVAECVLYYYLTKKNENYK
# These are yes or no findings as the source states them, for the method shown. Some results given as binding are weak or reduced against the parent protein; the word gives no strength.
# Molecular target: Histone deacetylase 3 (HDAC3), as co-expressed with SMRT 350–480 (human) (UniProt O15379)
# Experiment: co-purification; HDAC3 and SMRT 350–480 expressed in HEK-293 cells and purified as a complex as described in [37]; complex shown to be enzymatically active
substance,measurement,value
"SMRT 350–480 (silencing mediator of retinoic and thyroid receptors, deacetylase-activating domain) (from UniProt Q9Y618 350-480) (domain or fragment)",binding,binds
